Assay results reported in US20110195892A1, “Artifical Pulmonary Surfactant Compositions” (priority 2005, published 2011).
Square brackets hold non-standard residues; d marks the D form. Peptide text beside a SMILES is read from it.

Assay: CD spectrum measurement (conformation of peptides)
Assay type: physicochemical
Settings: 20 mM Tes Buffer with 150 mM NaCl, 25° C., FIG. 1A

Compound	structure from CD spectrum
CC(C)C[C@H](NC(=O)[C@H](CC(C)C)NC(=O)[C@H](CC(C)C)NC(=O)[C@H](CCCCN)NC(=O)[C@@H](CC(C)C)NC(=O)[C@H](CC(C)C)NC(=O)[C@H](CCCCN)NC(=O)[C@H](CC(C)C)NC(=O)[C@H](Cc1c[nH]c2ccccc12)NC(=O)[C@H](CC(C)C)NC(=O)[C@@H](CCCCN)NC(=O)[C@@H](CC(C)C)NC(=O)[C@H](CC(C)C)NC(=O)[C@H](CC(C)C)NC(=O)[C@H](CCCCN)NC(=O)[C@H](CC(C)C)NC(=O)[C@H](CC(C)C)NC(=O)[C@@H](N)CCCCN)C(=O)O [Hel 13-5D3, NH2-Lys Leu Leu Lys Leu Leu D-Leu D-Lys Leu Trp Leu Lys D-Leu Leu Lys Leu Leu Leu-COOH] (H-KLLKLL[dL][dK]LWLKL[dL]KLLL-OH)	reduced their α-helix structures and assumed a random-like structure
CC(C)C[C@H](NC(=O)[C@H](CC(C)C)NC(=O)[C@@H](CC(C)C)NC(=O)[C@H](CCCCN)NC(=O)[C@@H](CC(C)C)NC(=O)[C@H](CC(C)C)NC(=O)[C@H](CCCCN)NC(=O)[C@@H](CC(C)C)NC(=O)[C@H](Cc1c[nH]c2ccccc12)NC(=O)[C@H](CC(C)C)NC(=O)[C@@H](CCCCN)NC(=O)[C@@H](CC(C)C)NC(=O)[C@H](CC(C)C)NC(=O)[C@H](CC(C)C)NC(=O)[C@H](CCCCN)NC(=O)[C@H](CC(C)C)NC(=O)[C@H](CC(C)C)NC(=O)[C@@H](N)CCCCN)C(=O)O [Hel 13-5D5, NH2-Lys Leu Leu Lys Leu Leu D-Leu D-Lys Leu Trp D-Leu Lys Leu D-Leu Lys D-Leu Leu Leu-COOH] (H-KLLKLL[dL][dK]LW[dL]KL[dL]K[dL]LL-OH)	reduced their α-helix structures and assumed a random-like structure
H-KLLKLLLKLWLKLLKLLL-OH [Hel 13-5, NH2-Lys Leu Leu Lys Leu Leu Leu Lys Leu Trp Leu Lys Leu Leu Lys Leu Leu Leu-COOH]	assumed an α-helix structure
